For this series, the target named is Wss1-RKR (self-cleavage deficient) (Saccharomyces cerevisiae) (UniProt P38838). Put plainly: EMSA. Particulars: 5 uM ZnSO4. (In general: Mobility shift assays separate free from complexed probe on a gel.)

Sequences of proteins named here, by UniProt entry; tags and fusion partners are left off. A change or cut given only in a name is not applied to a line headed by its entry.
UniProt P38838: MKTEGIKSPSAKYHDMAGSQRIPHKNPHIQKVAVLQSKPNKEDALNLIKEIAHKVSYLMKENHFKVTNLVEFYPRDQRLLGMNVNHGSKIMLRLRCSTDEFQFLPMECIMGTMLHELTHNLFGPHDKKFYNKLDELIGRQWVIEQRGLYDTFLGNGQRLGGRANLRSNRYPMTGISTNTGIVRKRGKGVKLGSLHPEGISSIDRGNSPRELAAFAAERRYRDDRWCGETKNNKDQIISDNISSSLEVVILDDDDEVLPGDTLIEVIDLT

The exact form of at least one protein or probe is not confirmed.

As to “GCGCGCCCATTGATACTAAATTCAAGGATGACTTATTTC [6-FAM-39mer ssODN]”, the binding result is “binds”.

Values taken from paper doi:10.1101/2019.12.13.876110.
